In PMC4764564 one finds binding data, which are given here for 2 molecules.

These are yes or no findings as the source states them, for the method shown. Binding seen in cells or lysates may run through a third protein. For some of these results: Binding can be weak; no strength is given. For some of these results: Sequences can lack the tags named with a protein.

Experiment [1] deals with T1, PDZ domain from MPP2 (mouse) (UniProt Q9WV34).
T1 sequence: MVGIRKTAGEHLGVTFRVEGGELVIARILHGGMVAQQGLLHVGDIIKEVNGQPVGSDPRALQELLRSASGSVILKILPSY
In words: pull-down; PDZ domain from MPP2 tested with the N-terminal domain of SK2-L; told in the text only, no figure and no construct given.

Experiment [2] has as its target T2, GST-MPP2 SH3-HOOK-GK domain (216-552) (mouse) (UniProt Q9WV34).
T2 sequence: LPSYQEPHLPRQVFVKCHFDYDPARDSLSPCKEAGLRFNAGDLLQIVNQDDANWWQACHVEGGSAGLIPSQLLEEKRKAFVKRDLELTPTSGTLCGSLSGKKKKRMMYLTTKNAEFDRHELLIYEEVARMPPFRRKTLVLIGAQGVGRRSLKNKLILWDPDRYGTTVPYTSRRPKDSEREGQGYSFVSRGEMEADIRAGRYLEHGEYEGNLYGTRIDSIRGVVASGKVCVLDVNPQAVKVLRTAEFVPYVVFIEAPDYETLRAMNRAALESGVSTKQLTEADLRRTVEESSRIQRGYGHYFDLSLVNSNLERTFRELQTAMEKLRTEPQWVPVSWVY
Kind of experiment: pull-down; GST-fusion baits bound from bacterial lysate to glutathione agarose beads and washed; incubated at 4°C overnight with bacterial cell lysate expressing the His-tagged prey; PWB (20 mM HEPES pH 7.8, 10% glycerol, 100 mM KCl, 0.1 mM EDTA, 0.1 mM DTT, 0.1% Igepal CA-630); blot probed with anti-His; only the target purified.

Experiment [3] deals with T3, GST-SAP97 SH3-HOOK-GK domain (577-927) (mouse) (UniProt Q811D0).
T3 sequence: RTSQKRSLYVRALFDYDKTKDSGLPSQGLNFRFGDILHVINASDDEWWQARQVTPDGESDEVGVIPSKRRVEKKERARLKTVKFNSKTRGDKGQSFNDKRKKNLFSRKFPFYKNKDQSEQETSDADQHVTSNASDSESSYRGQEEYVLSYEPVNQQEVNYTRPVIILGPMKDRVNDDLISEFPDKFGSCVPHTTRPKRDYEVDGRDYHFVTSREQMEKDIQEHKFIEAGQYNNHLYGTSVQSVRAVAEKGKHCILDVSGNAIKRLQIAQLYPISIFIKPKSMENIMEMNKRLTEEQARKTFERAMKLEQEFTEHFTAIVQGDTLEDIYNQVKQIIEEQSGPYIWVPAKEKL
Described as above.

Experiment [4] deals with SK2-S plus SK2-L, co-expressed (SK2-containing channels). In words: co-IP; HEK293 cells co-transfected; lysis in 20 mM HEPES pH 7.5, 150 mM NaCl, 10% glycerol, 2 mM EDTA, 1% beta-D-dodecyl maltoside; anti-SK2 (guinea pig), anti-GluA1 or control IgG with protein A/G agarose overnight at 4°C; Western blot. (A western blot detects proteins with antibodies after separation by electrophoresis.)

Turning to “His-tagged N-terminal domain of SK2-L (67-273) (domain or fragment)”, the values for the binding result in experiment [1], in experiment [2] and in experiment [3] were “no binding”, “binds” and “no binding”, respectively.

B1: C8-MPP2 (protein, UniProt Q9WV34-1 1-552)
chain: MPVAATNSESAMQQVLDNLGSLPNATGAAELDLIFLRGIMESPIVRSLAKAHERLEETKLEAVRDNNLELVQEILRDLAELAEQSSTAAELARILQEPHFQSLLETHDSVASKTYETPPPSPGLDPTFSNQPVPPDAVRMVGIRKTAGEHLGVTFRVEGGELVIARILHGGMVAQQGLLHVGDIIKEVNGQPVGSDPRALQELLRSASGSVILKILPSYQEPHLPRQVFVKCHFDYDPARDSLSPCKEAGLRFNAGDLLQIVNQDDANWWQACHVEGGSAGLIPSQLLEEKRKAFVKRDLELTPTSGTLCGSLSGKKKKRMMYLTTKNAEFDRHELLIYEEVARMPPFRRKTLVLIGAQGVGRRSLKNKLILWDPDRYGTTVPYTSRRPKDSEREGQGYSFVSRGEMEADIRAGRYLEHGEYEGNLYGTRIDSIRGVVASGKVCVLDVNPQAVKVLRTAEFVPYVVFIEAPDYETLRAMNRAALESGVSTKQLTEADLRRTVEESSRIQRGYGHYFDLSLVNSNLERTFRELQTAMEKLRTEPQWVPVSWVY
Turning to B1, the binding entry in experiment [4] was “binds”.
